From the supplement of paper PMC8728848
The other results are listed elsewhere or left out.

Columns and labels:
Assay in all cases: glycan array binding signal (z-score within array); higher = stronger binding
Conditions in all cases: glycan notation: IUPAC condensed, linker removed
[1] = biological target: Neu5Ac(a2-3)Gal(b1-3)GalNAc
Summary of the method: (§1)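 Glycan array data came from 3228 arrays in the Consortium for Functional Glycomics database, and only arrays with an available protein sequence were kept. Glycan names were put into IUPAC-condensed notation, and columns mapping to the same glycan were averaged. The binding signal is a within-array Z-score, averaged across arrays of one protein sequence run at different concentrations or buffers and across linkers. A negative Z-score can be read as non-binding.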

[2] = biological target: Neu5Ac(a2-3)Gal(b1-3)GalNAc(b1-3)Gal(a1-4)Gal(b1-4)Glc
Summary of the method: as §1

[3] = biological target: Neu5Ac(a2-3)Gal(b1-3)GalNAc(b1-4)[Neu5Ac(a2-3)]Gal(b1-4)Glc
Summary of the method: as §1

[4] = biological target: Neu5Ac(a2-3)Gal(b1-3)GalNAc(b1-4)[Neu5Ac(a2-8)Neu5Ac(a2-3)]Gal(b1-4)Glc
Summary of the method: as §1

[5] = biological target: Neu5Ac(a2-3)Gal(b1-3)GalNAc6S
Summary of the method: as §1

[6] = biological target: Neu5Ac(a2-3)Gal(b1-3)GlcNAc
Summary of the method: as §1

[7] = biological target: Neu5Ac(a2-3)Gal(b1-3)GlcNAc(b1-2)Man
Summary of the method: as §1

[8] = biological target: Neu5Ac(a2-3)Gal(b1-3)GlcNAc(b1-2)Man(a1-3)[GlcNAc(b1-4)][Neu5Ac(a2-3)Gal(b1-3)GlcNAc(b1-2)Man(a1-6)]Man(b1-4)GlcNAc(b1-4)GlcNAc
Summary of the method: as §1

[9] = biological target: Neu5Ac(a2-3)Gal(b1-3)GlcNAc(b1-2)Man(a1-3)[Neu5Ac(a2-3)Gal(b1-3)GlcNAc(b1-2)Man(a1-6)]Man(b1-4)GlcNAc(b1-4)GlcNAc
Summary of the method: as §1

[10] = biological target: Neu5Ac(a2-3)Gal(b1-3)GlcNAc(b1-3)Gal(b1-3)GlcNAc
Summary of the method: as §1

[11] = biological target: Neu5Ac(a2-3)Gal(b1-3)GlcNAc(b1-3)Gal(b1-4)GlcNAc
Summary of the method: as §1

[12] = biological target: Neu5Ac(a2-3)Gal(b1-3)GlcNAc(b1-3)GalNAc
Summary of the method: as §1

[13] = biological target: Neu5Ac(a2-3)Gal(b1-3)GlcNAc(b1-4)Gal(b1-4)Glc
Summary of the method: as §1

[14] = biological target: Neu5Ac(a2-3)Gal(b1-3)GlcNAc(b1-6)GalNAc
Summary of the method: as §1

[15] = biological target: Neu5Ac(a2-3)Gal(b1-3)GlcNAc6S
Summary of the method: as §1

[16] = biological target: Neu5Ac(a2-3)Gal(b1-3)[Fuc(a1-4)]GlcNAc
Summary of the method: as §1

[17] = biological target: Neu5Ac(a2-3)Gal(b1-3)[Fuc(a1-4)]GlcNAc(b1-3)Gal(b1-3)[Fuc(a1-4)]GlcNAc
Summary of the method: as §1

[18] = biological target: Neu5Ac(a2-3)Gal(b1-3)[Fuc(a1-4)]GlcNAc(b1-3)Gal(b1-4)[Fuc(a1-3)]GlcNAc
Summary of the method: as §1

[19] = biological target: Neu5Ac(a2-3)Gal(b1-3)[GlcNAc(b1-6)]GalNAc
Summary of the method: as §1

[20] = biological target: Neu5Ac(a2-3)Gal(b1-3)[Neu5Ac(a2-6)]GalNAc
Summary of the method: as §1

[21] = biological target: Neu5Ac(a2-3)Gal(b1-3)[Neu5Ac(a2-6)]GlcNAc(b1-3)[Fuc(a1-3)[Gal(b1-4)]GlcNAc(b1-6)]Gal(b1-4)Glc
Summary of the method: as §1

[22] = biological target: Neu5Ac(a2-3)Gal(b1-3)]Neu5Ac(a2-3)Gal(b1-4)]GlcNAc
Summary of the method: as §1

[23] = biological target: Neu5Ac(a2-3)Gal(b1-4)Glc
Summary of the method: as §1

[24] = biological target: Neu5Ac(a2-3)Gal(b1-4)GlcNAc
Summary of the method: as §1

[25] = biological target: Neu5Ac(a2-3)Gal(b1-4)GlcNAc(b1-2)Man
Summary of the method: as §1

[26] = biological target: Neu5Ac(a2-3)Gal(b1-4)GlcNAc(b1-2)Man(a1-3)[GlcNAc(b1-4)][Neu5Ac(a2-3)Gal(b1-4)GlcNAc(b1-2)Man(a1-6)]Man(b1-4)GlcNAc(b1-4)GlcNAc
Summary of the method: as §1

[27] = biological target: Neu5Ac(a2-3)Gal(b1-4)GlcNAc(b1-2)Man(a1-3)[Neu5Ac(a2-3)Gal(b1-4)GlcNAc(b1-2)Man(a1-6)]Man(b1-4)GlcNAc(b1-4)GlcNAc
Summary of the method: as §1

[28] = biological target: Neu5Ac(a2-3)Gal(b1-4)GlcNAc(b1-2)Man(a1-3)[Neu5Ac(a2-3)Gal(b1-4)GlcNAc(b1-2)Man(a1-6)]Man(b1-4)GlcNAc(b1-4)[Fuc(a1-6)]GlcNAc
Summary of the method: as §1

[29] = biological target: Neu5Ac(a2-3)Gal(b1-4)GlcNAc(b1-2)Man(a1-3)[Neu5Ac(a2-6)Gal(b1-4)GlcNAc(b1-2)Man(a1-6)]Man(b1-4)GlcNAc(b1-4)GlcNAc
Summary of the method: as §1

[30] = biological target: Neu5Ac(a2-3)Gal(b1-4)GlcNAc(b1-2)[Neu5Ac(a2-3)Gal(b1-4)GlcNAc(b1-4)]Man(a1-3)[GlcNAc(b1-4)][Neu5Ac(a2-3)Gal(b1-4)GlcNAc(b1-2)[Neu5Ac(a2-3)Gal(b1-4)GlcNAc(b1-6)]Man(a1-6)]Man(b1-4)GlcNAc(b1-4)GlcNAc
Summary of the method: as §1

[31] = biological target: Neu5Ac(a2-3)Gal(b1-4)GlcNAc(b1-2)[Neu5Ac(a2-3)Gal(b1-4)GlcNAc(b1-4)]Man(a1-3)[GlcNAc(b1-4)][Neu5Ac(a2-3)Gal(b1-4)GlcNAc(b1-4)Man(a1-6)]Man(b1-4)GlcNAc(b1-4)GlcNAc
Summary of the method: as §1

[32] = biological target: Neu5Ac(a2-3)Gal(b1-4)GlcNAc(b1-2)[Neu5Ac(a2-3)Gal(b1-4)GlcNAc(b1-6)]Man(a1-6)[Neu5Ac(a2-3)Gal(b1-4)GlcNAc(b1-2)Man(a1-3)]Man(b1-4)GlcNAc(b1-4)GlcNAc
Summary of the method: as §1

[33] = biological target: Neu5Ac(a2-3)Gal(b1-4)GlcNAc(b1-2)[Neu5Ac(a2-3)Gal(b1-4)GlcNAc(b1-6)]Man(a1-6)[Neu5Ac(a2-3)Gal(b1-4)GlcNAc(b1-2)Man(a1-3)][GlcNAc(b1-4)]Man(b1-4)GlcNAc(b1-4)GlcNAc
Summary of the method: as §1

[34] = biological target: Neu5Ac(a2-3)Gal(b1-4)GlcNAc(b1-3)Gal
Summary of the method: as §1

[35] = biological target: Neu5Ac(a2-3)Gal(b1-4)GlcNAc(b1-3)Gal(b1-3)GlcNAc
Summary of the method: as §1

[36] = biological target: Neu5Ac(a2-3)Gal(b1-4)GlcNAc(b1-3)Gal(b1-4)GlcNAc
Summary of the method: as §1

[37] = biological target: Neu5Ac(a2-3)Gal(b1-4)GlcNAc(b1-3)Gal(b1-4)GlcNAc(b1-2)Man(a1-3)[Neu5Ac(a2-3)Gal(b1-4)GlcNAc(b1-3)Gal(b1-4)GlcNAc(b1-2)Man(a1-6)]Man(b1-4)GlcNAc(b1-4)GlcNAc
Summary of the method: as §1

[38] = biological target: Neu5Ac(a2-3)Gal(b1-4)GlcNAc(b1-3)Gal(b1-4)GlcNAc(b1-3)Gal(b1-4)GlcNAc
Summary of the method: as §1

[39] = biological target: Neu5Ac(a2-3)Gal(b1-4)GlcNAc(b1-3)Gal(b1-4)GlcNAc(b1-3)Gal(b1-4)GlcNAc(b1-2)Man(a1-3)[Neu5Ac(a2-3)Gal(b1-4)GlcNAc(b1-3)Gal(b1-4)GlcNAc(b1-3)Gal(b1-4)GlcNAc(b1-2)Man(a1-6)]GalNAc
Summary of the method: as §1

[40] = biological target: Neu5Ac(a2-3)Gal(b1-4)GlcNAc(b1-3)Gal(b1-4)GlcNAc(b1-3)GalNAc
Summary of the method: as §1

[41] = biological target: Neu5Ac(a2-3)Gal(b1-4)GlcNAc(b1-3)Gal(b1-4)GlcNAc(b1-3)[Neu5Ac(a2-3)Gal(b1-4)GlcNAc(b1-3)Gal(b1-4)GlcNAc(b1-6)]GalNAc
Summary of the method: as §1

[42] = biological target: Neu5Ac(a2-3)Gal(b1-4)GlcNAc(b1-3)Gal(b1-4)GlcNAc(b1-6)[Gal(b1-3)]GalNAc
Summary of the method: as §1

[43] = biological target: Neu5Ac(a2-3)Gal(b1-4)GlcNAc(b1-3)Gal(b1-4)[Fuc(a1-3)]GlcNAc
Summary of the method: as §1

[44] = biological target: Neu5Ac(a2-3)Gal(b1-4)GlcNAc(b1-3)GalNAc
Summary of the method: as §1

[45] = biological target: Neu5Ac(a2-3)Gal(b1-4)GlcNAc(b1-3)[Neu5Ac(a2-3)Gal(b1-4)GlcNAc(b1-6)]GalNAc
Summary of the method: as §1

B1: Clone646PsrP (Streptococcus pneumoniae) (protein)
chain: MDHHHHHHHHASENLYFQGAPAINASLNIAKSETKVYTGEGVDSVYRVPIYYKLKVTNDGSKLTFTYTVTYVNPKTNDLGNISSMRPGYSIYNSGTSTQTMLTLGSDLGKPSGVKNYITDKNGRQVLSYNTSTMTTQGSGYTWGNGAQMNGFFAKKGYGLTSSWTVPITGTDTSFTFTPYAARTDRIGINYFNGGGKVVESSTTSQSLSQSKSLSVSAS
- glycan array binding signal (z-score) [1]: -0.895
- glycan array binding signal (z-score) [2]: 0.373
- glycan array binding signal (z-score) [3]: -0.543
- glycan array binding signal (z-score) [4]: -0.476
- glycan array binding signal (z-score) [5]: 0.541
- glycan array binding signal (z-score) [6]: -0.345
- glycan array binding signal (z-score) [7]: 2.02
- glycan array binding signal (z-score) [8]: -0.952
- glycan array binding signal (z-score) [9]: 1.21
- glycan array binding signal (z-score) [10]: -0.996
- glycan array binding signal (z-score) [11]: -0.976
- glycan array binding signal (z-score) [12]: -0.325
- glycan array binding signal (z-score) [13]: 0.297
- glycan array binding signal (z-score) [14]: -0.742
- glycan array binding signal (z-score) [15]: -0.267
- glycan array binding signal (z-score) [16]: 1.13
- glycan array binding signal (z-score) [17]: -0.452
- glycan array binding signal (z-score) [18]: -0.482
- glycan array binding signal (z-score) [19]: -0.453
- glycan array binding signal (z-score) [20]: -0.254
- glycan array binding signal (z-score) [21]: -0.878
- glycan array binding signal (z-score) [22]: 1.22
- glycan array binding signal (z-score) [23]: 1.05
- glycan array binding signal (z-score) [24]: 0.372
- glycan array binding signal (z-score) [25]: 2.89
- glycan array binding signal (z-score) [26]: -0.995
- glycan array binding signal (z-score) [27]: -0.947
- glycan array binding signal (z-score) [28]: -0.778
- glycan array binding signal (z-score) [29]: -0.963
- glycan array binding signal (z-score) [30]: -0.987
- glycan array binding signal (z-score) [31]: -0.74
- glycan array binding signal (z-score) [32]: -0.679
- glycan array binding signal (z-score) [33]: -0.951
- glycan array binding signal (z-score) [34]: -0.909
- glycan array binding signal (z-score) [35]: -0.942
- glycan array binding signal (z-score) [36]: 0.751
- glycan array binding signal (z-score) [37]: -0.824
- glycan array binding signal (z-score) [38]: -0.683
- glycan array binding signal (z-score) [39]: -0.067
- glycan array binding signal (z-score) [40]: -0.519
- glycan array binding signal (z-score) [41]: -0.501
- glycan array binding signal (z-score) [42]: -0.355
- glycan array binding signal (z-score) [43]: -0.61
- glycan array binding signal (z-score) [44]: -0.781
- glycan array binding signal (z-score) [45]: -0.321
